# Assay results taken from patent US9827320B2, “Compositions with reduced bitter taste perception” (The Procter & Gamble Company, priority 2014, dated 2017).
# Some of these results come from one statement about several compounds together. At least one compound was matched to its structure with a doubt left.
# System: Human fungiform taste bud cells
# Assay: Assay for Taste Receptors (calcium fluorescence, FLIPR)
# Assay type: cell-based
# Settings: FIG. 5A; 0.2 mM, without polyquaternium-2
row,SMILES,bitterness of the composition itself
1,O=C(Nc1ccccc1C(=O)O)c1ccccc1 [benzoyl anthranilic acid],over 6000 FUs
2,Nc1ccccc1C(=O)Oc1ccc2ccccc2c1 [beta-naphthyl anthranilate],over 6000 FUs
3,CNc1ccccc1C(=O)OC [dimethyl anthranilate],over 6000 FUs
4,COC(=O)c1ccccc1N [methyl anthranilate],over 6000 FUs
5,COC(=O)c1ccccc1NC=O [methyl formyl anthranilate],over 6000 FUs
